These results are taken from publication PMC9913340.

These are yes or no findings as the source states them, for the method shown. Binding seen in cells or lysates may run through a third protein. Some binding calls cover weakened binding; strength is not graded here.

This assay concerns the target T1, Checkpoint kinase 1 (CHK1) (human (endogenous in Huh-7)) (UniProt O14757).
T1 sequence: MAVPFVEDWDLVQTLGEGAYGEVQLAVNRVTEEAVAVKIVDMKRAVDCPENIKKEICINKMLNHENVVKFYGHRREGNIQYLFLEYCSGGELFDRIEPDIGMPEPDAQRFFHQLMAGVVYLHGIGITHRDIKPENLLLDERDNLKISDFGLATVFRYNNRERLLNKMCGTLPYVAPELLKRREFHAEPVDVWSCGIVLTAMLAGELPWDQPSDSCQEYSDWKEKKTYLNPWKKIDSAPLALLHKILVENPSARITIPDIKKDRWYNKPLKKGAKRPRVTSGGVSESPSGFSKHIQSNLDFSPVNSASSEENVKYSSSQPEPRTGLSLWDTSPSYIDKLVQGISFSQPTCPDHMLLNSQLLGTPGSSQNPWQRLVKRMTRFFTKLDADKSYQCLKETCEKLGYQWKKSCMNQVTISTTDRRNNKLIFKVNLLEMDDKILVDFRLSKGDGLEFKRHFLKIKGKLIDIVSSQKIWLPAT
Description: co-IP; Lysate of Huh-7 cells treated with cisplatin 10 µM for 24 h; anti-CHK1 or anti-IRF1 antibody on Protein A+G magnetic beads, overnight at 4 °C; western blot for the other protein; control IgG.

B1: Interferon regulatory factor 1 (IRF1) (protein, UniProt P10914 1-325)
chain: MPITRMRMRPWLEMQINSNQIPGLIWINKEEMIFQIPWKHAAKHGWDINKDACLFRSWAIHTGRYKAGEKEPDPKTWKANFRCAMNSLPDIEEVKDQSRNKGSSAVRVYRMLPPLTKNQRKERKSKSSRDAKSKAKRKSCGDSSPDTFSDGLSSSTLPDDHSSYTVPGYMQDLEVEQALTPALSPCAVSSTLPDWHIPVEVVPDSTSDLYNFQVSPMPSTSEATTDEDEEGKLPEDIMKLLEQSEWQPTNVDGKGYLLNEPGVQPTSVYGDFSCKEEPEIDSPGGDIGLSLQRVFTDLKNMDATWLDSLLTPVRLPSIQAIPCAP
Turning to B1, the binding entry is on record as “binds”.
